Some of the results follow.

This assay addresses Eukaryotic translation initiation factor 4H (Homo sapiens) (UniProt Q15056). As to the kind of experiment: eIF4H binding inhibition – biochemical, uHTS, fluorescence polarization, translation initiation inhibitor project, primary screen (AID 2012). Conditions: eIF4H fluorescence polarization binding assay; confirmation average; at 20 µM; stronger effect = higher value. A general note: In fluorescence polarisation assays a small probe gives low polarisation when free and higher when bound to something large.
As a reminder, the inhibition is how much of the control response was suppressed. For the compound `CCCN1CCC(Nc2cc(OC)cc(OC)c2)CC1`, the inhibition worked out at 35.5%.
